Experimental findings from paper PMC3656097 are described below.

Chains of the proteins cited; added tags and fusions are not shown. Residues count along the entry.
UniProt Q8BG39: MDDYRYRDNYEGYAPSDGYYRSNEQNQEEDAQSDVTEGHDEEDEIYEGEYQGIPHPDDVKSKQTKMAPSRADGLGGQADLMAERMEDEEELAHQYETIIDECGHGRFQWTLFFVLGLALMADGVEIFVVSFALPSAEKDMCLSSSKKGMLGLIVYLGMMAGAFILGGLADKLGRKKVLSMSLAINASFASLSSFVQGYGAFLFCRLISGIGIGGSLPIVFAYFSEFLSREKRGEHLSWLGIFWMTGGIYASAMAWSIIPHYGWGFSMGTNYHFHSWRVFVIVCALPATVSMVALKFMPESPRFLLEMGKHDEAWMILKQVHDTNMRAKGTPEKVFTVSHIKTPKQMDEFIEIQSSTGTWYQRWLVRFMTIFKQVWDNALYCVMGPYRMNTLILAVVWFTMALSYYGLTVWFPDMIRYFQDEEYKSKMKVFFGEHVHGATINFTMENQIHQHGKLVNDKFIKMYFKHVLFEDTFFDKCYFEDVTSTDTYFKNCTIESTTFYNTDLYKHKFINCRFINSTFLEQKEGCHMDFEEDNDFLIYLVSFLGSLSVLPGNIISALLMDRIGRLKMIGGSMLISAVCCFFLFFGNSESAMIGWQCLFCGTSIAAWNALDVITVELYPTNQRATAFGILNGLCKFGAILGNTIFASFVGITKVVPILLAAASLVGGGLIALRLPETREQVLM
UniProt Q61851, residues 21-801: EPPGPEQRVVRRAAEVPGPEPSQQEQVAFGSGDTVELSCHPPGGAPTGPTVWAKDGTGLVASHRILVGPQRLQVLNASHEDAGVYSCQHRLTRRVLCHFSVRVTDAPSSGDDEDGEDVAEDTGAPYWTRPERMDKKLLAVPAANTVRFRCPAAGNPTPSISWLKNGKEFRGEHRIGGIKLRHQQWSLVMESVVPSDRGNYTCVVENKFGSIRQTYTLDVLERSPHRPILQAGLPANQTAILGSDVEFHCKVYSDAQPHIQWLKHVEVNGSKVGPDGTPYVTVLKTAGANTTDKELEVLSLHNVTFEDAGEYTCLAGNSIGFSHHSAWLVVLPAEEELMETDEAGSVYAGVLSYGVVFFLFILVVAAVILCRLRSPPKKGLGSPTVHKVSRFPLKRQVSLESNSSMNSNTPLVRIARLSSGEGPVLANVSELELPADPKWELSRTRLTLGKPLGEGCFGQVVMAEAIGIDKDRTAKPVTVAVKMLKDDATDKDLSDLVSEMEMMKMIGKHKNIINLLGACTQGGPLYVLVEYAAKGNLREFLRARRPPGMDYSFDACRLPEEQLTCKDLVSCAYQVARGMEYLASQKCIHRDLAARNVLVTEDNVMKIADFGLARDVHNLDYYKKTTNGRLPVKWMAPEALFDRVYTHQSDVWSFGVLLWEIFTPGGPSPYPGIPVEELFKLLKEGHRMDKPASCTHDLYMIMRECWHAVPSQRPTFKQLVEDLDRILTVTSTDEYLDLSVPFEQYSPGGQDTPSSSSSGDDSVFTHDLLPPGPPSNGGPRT

Experiment [1] concerns the target SV2B of Neuro-2a cells (mouse (endogenous in Neuro-2a)) (UniProt Q8BG39). As to the kind of experiment: co-IP.
Experiment [2] has as its target FGFR3 of Neuro-2a cells (mouse (endogenous in Neuro-2a)) (UniProt Q61851). The experiment can be described thus: co-IP.

Results are given in words; binding and its absence hold for the method and conditions named. In cells and extracts the contact can be indirect. Some binding calls cover weakened binding; strength is not graded here.

In the case of “FGFR3 of Neuro-2a cells (from UniProt Q61851 21-801) (receptor)”, the binding result in experiment [1] is “binds”.
For “SV2B of Neuro-2a cells (from UniProt Q8BG39 1-683)”, the binding entry in experiment [2] was “binds”.
